Assay results taken from the supplement of paper PMC10849652.
This is one part of the list.

The chains behind the UniProt entries cited, without tags or fusion partners. Where a name states a change or a piece, a line headed by the entry shows the natural chain unless it says otherwise.
UniProt P08397: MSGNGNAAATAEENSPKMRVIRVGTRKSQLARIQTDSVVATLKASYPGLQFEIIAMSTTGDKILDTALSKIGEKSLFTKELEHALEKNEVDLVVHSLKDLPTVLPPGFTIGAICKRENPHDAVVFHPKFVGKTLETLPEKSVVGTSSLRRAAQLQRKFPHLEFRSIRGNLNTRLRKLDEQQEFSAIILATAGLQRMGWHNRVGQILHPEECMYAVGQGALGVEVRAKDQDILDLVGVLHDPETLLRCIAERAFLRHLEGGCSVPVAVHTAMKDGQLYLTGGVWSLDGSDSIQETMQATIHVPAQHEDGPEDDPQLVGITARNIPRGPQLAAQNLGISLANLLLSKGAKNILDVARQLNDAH
UniProt Q96FZ2: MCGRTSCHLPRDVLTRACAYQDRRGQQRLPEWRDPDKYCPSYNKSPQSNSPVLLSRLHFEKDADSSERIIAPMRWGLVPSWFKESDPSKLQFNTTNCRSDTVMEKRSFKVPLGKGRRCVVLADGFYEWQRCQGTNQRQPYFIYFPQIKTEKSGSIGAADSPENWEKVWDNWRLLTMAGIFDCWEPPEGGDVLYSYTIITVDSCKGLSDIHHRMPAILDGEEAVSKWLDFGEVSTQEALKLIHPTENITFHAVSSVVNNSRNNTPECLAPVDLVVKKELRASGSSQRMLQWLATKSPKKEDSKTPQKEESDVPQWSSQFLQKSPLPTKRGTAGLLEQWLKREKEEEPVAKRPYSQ
UniProt P17482: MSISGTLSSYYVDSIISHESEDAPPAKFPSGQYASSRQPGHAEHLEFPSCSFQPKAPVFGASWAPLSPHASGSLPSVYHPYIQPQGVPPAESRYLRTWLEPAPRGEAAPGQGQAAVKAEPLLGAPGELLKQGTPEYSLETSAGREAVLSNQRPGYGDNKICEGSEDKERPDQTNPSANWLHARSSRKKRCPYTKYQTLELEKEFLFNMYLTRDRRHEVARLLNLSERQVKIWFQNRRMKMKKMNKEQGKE
UniProt P82970: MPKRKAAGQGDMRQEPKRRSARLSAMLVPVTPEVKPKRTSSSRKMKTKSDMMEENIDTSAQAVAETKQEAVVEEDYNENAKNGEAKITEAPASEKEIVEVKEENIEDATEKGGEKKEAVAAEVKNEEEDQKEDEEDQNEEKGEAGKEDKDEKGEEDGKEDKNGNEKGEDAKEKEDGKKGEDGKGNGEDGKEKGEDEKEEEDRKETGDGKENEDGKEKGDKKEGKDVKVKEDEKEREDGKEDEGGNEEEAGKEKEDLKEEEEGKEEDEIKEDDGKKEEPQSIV
UniProt Q14103: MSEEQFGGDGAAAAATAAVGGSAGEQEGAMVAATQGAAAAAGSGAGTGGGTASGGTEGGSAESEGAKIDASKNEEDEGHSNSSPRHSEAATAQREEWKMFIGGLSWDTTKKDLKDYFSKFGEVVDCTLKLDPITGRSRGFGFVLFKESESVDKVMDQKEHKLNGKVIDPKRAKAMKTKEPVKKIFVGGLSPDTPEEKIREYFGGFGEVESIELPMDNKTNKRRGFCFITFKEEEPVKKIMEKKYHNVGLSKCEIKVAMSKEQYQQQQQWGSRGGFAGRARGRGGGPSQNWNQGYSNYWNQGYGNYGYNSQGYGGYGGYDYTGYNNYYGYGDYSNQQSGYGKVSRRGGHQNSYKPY
UniProt P17096: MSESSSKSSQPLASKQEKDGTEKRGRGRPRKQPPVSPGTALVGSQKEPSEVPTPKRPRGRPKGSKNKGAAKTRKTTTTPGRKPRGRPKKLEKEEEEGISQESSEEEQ
UniProt Q9NRV9: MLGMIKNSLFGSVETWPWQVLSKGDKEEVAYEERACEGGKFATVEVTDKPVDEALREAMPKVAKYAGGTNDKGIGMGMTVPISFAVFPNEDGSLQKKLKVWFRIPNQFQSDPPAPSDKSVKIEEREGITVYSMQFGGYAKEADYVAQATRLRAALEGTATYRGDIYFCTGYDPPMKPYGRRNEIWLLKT
UniProt Q9BUJ2: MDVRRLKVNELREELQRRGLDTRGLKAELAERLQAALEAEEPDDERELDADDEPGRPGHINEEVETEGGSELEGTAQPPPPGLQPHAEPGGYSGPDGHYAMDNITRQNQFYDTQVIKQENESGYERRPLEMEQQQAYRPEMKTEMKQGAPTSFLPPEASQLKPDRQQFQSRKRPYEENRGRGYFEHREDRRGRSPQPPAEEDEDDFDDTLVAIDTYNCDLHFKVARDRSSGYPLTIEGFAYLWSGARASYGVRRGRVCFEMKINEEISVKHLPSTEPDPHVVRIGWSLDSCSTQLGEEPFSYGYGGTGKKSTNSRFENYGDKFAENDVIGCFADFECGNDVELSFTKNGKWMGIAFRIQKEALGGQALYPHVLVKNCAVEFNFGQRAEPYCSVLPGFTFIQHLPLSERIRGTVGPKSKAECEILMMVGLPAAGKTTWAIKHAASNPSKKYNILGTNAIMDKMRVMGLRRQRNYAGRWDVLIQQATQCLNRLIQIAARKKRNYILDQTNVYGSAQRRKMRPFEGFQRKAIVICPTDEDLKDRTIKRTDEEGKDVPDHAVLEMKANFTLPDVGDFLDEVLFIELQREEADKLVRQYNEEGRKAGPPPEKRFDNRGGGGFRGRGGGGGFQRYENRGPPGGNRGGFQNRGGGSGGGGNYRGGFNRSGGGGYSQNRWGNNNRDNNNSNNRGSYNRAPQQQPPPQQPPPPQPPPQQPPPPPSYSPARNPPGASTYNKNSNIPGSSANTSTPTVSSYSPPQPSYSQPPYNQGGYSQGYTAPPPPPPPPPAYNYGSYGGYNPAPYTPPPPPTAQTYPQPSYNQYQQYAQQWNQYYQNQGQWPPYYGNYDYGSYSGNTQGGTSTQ
UniProt Q58FF6, whole entry, looked up: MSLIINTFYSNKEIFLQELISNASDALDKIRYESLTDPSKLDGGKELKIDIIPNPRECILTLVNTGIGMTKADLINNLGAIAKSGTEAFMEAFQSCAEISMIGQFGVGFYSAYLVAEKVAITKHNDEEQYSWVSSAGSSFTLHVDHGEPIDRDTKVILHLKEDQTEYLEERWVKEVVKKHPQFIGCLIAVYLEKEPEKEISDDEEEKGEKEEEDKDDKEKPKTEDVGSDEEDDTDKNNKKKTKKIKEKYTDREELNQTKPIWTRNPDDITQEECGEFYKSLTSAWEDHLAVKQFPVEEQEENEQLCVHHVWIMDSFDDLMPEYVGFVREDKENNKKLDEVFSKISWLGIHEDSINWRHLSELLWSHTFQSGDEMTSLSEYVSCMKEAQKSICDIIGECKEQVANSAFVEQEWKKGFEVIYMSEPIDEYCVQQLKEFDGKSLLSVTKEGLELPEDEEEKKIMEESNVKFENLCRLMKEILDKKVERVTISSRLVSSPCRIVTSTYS
UniProt Q92506: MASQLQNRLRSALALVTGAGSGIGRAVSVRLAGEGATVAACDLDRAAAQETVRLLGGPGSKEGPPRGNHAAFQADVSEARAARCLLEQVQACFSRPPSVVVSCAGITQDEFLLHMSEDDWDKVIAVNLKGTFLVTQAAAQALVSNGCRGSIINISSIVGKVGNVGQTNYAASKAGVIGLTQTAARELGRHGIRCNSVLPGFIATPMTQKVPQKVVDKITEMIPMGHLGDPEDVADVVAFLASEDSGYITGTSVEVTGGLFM
UniProt P56937: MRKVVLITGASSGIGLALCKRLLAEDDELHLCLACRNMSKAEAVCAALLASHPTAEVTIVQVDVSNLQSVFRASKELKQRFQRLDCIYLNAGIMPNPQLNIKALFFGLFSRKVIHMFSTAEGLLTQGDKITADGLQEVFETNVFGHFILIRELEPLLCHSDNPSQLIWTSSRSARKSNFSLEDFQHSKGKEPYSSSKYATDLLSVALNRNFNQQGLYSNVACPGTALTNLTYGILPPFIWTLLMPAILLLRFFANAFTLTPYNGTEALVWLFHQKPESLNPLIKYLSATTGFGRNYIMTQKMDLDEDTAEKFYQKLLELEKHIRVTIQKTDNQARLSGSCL
UniProt Q8TCT9: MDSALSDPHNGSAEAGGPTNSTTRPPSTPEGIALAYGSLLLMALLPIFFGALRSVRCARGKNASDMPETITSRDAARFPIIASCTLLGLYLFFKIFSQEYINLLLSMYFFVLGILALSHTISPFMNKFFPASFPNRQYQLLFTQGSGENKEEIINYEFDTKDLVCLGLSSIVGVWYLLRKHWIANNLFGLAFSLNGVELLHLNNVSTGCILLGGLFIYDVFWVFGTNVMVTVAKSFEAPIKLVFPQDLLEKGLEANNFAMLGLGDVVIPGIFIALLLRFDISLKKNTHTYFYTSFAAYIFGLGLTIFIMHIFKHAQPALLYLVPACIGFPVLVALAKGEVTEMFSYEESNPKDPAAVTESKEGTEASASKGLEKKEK
UniProt Q6DN03, whole entry, looked up: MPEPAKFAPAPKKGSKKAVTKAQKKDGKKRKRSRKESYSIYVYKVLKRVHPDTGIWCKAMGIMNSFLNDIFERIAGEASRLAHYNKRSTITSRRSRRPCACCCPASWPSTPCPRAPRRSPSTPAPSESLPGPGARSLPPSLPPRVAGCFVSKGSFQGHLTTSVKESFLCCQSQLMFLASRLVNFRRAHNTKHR
UniProt Q9BX68: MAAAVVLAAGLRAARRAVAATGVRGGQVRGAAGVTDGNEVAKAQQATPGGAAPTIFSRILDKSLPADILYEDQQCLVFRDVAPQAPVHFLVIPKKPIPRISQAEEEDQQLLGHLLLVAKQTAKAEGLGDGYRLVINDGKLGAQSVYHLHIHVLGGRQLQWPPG
UniProt P14625, whole entry, looked up: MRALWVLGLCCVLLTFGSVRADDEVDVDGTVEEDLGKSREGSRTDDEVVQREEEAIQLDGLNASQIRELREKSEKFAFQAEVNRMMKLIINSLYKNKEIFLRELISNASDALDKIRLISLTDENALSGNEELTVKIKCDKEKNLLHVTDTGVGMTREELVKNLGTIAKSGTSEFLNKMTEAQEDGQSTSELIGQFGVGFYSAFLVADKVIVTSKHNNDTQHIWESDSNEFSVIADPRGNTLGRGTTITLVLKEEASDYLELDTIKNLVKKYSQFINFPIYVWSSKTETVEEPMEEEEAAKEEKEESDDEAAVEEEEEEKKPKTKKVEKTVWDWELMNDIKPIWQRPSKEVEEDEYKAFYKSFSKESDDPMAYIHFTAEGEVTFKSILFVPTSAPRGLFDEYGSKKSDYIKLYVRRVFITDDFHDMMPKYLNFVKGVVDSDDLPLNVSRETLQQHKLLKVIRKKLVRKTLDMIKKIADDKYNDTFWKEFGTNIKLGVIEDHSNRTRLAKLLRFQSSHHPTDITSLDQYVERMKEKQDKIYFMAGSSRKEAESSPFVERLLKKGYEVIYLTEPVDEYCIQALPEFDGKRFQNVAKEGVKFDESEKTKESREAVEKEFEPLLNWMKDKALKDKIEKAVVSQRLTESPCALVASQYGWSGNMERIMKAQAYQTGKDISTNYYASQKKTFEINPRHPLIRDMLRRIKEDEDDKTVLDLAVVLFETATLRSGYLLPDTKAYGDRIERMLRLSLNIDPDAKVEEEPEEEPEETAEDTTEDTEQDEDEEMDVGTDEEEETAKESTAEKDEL
UniProt Q9NWY4: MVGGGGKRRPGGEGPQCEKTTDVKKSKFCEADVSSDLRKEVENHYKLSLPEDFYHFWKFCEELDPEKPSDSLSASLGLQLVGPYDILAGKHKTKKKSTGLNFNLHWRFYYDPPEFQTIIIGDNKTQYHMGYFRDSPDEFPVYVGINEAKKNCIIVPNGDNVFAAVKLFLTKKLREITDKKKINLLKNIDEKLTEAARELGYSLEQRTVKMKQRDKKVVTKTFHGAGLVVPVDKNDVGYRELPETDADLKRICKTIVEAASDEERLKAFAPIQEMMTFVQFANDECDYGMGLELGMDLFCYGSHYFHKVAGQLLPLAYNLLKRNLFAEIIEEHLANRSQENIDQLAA
UniProt Q03014: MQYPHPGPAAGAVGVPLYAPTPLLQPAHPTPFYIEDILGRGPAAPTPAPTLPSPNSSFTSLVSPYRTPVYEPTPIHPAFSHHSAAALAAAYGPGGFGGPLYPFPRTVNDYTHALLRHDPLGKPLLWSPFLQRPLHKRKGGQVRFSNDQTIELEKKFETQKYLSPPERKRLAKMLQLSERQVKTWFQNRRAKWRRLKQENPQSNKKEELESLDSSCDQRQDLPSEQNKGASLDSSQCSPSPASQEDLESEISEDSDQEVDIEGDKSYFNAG
UniProt Q5SSJ5: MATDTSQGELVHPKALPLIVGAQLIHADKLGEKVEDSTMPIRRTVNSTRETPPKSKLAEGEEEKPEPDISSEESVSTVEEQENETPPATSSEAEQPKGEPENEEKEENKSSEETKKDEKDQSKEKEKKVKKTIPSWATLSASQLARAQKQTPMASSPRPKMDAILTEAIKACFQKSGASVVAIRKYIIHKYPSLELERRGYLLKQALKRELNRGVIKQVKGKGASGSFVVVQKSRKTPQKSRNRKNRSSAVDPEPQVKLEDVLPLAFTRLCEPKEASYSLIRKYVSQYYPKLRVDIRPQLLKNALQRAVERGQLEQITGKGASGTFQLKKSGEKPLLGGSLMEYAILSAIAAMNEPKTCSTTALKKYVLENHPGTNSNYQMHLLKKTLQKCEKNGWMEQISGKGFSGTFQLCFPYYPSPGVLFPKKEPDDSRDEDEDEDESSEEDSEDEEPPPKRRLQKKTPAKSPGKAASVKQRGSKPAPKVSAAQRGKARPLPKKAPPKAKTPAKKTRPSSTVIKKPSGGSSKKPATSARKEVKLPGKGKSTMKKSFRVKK

What was measured:
Experiment in all cases: log2 fold change, soluble protein after heating vs DMSO (PISA); higher = thermal stabilisation; K562 lysate, 10 uM; active = over 0.2 and 3.5 SD of the protein, either way, in both replicates (recomputed)
alvocidib = compound: CN1CC[C@H](c2c(O)cc(O)c3c(=O)cc(-c4ccccc4Cl)oc23)[C@H](O)C1 [alvocidib]
Outline: (§1)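 Values give the log-two fold change in thermal stability against solvent controls, from duplicates. Crude K562 extract at 1 mg/mL protein, made by dounce homogenisation in PBS pH 7.4 with 1 mM MgCl2, was treated with 10 μM compound for 30 min. After 3 min heating across 48°C-58°C, aliquots were pooled, adjusted to 0.5% NP-40 at 4°C and centrifuged at 21,000xg for 90 min. The supernatant was measured by TMTpro 16plex LC-MS/MS with channel sums equalised.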

Tubastatin A = compound: CN1CCc2c(c3ccccc3n2Cc2ccc(C(=O)NO)cc2)C1 [Tubastatin A]
Outline: as §1

[1] = compound: CNC(=O)C1=CC=CC=C1NC2=NC(=NC=C2Cl)NC3=C(C=C(C=C3)N4CCOCC4)OC
Outline: as §1

defactinib = compound: CNC(=O)c1ccc(Nc2ncc(C(F)(F)F)c(NCc3nccnc3N(C)S(C)(=O)=O)n2)cc1 [defactinib]
Outline: as §1

[2] = compound: CNc1nc(-c2ccc3c(N)n[nH]c3c2)cc(N2C[C@@H](C(=O)NC3CCCCC3)CC[C@H]2C)n1
Outline: as §1

encorafenib = compound: COC(=O)N[C@@H](C)CNc1nccc(-c2cn(C(C)C)nc2-c2cc(Cl)cc(NS(C)(=O)=O)c2F)n1 [encorafenib]
Outline: as §1

[3] = compound: COC(=O)[C@H](CCSC)NC(=O)C1=C(C=C(C=C1)NC[C@H](CS)N)C2=CC=CC=C2
Outline: as §1

alisertib = compound: COc1cc(Nc2ncc3c(n2)-c2ccc(Cl)cc2C(c2c(F)cccc2OC)=NC3)ccc1C(=O)O [alisertib]
Outline: as §1

[4] = compound: COc1cc2nc(-c3cc(F)ccc3O)nc(N[C@@H]3CNC[C@H]3C(C)(C)O)c2cc1OC
Outline: as §1

gefitinib = compound: COc1cc2ncnc(Nc3ccc(F)c(Cl)c3)c2cc1OCCCN1CCOCC1 [gefitinib]
Outline: as §1

Measured: log2 fold change

HMBS (UniProt P08397)
inactive: alvocidib 0.048 | Tubastatin A 0.036 | [1] 0.012 | defactinib -0.014 | [2] -0.002 | encorafenib -0.041 | [3] -0.029 | alisertib -0.043 | [4] 0.011 | gefitinib -0.031

HMMR isoform 3 (UniProt O75330)
inactive: alvocidib -0.005 | Tubastatin A -0.014 | [1] 0.015 | defactinib 0.022 | [2] 0.007 | encorafenib 0.009 | [3] -0.004 | alisertib 0.001 | [4] -0.009 | gefitinib 0.007

HNRNPK isoform 3 (UniProt P61978)
inactive: alvocidib 0.081 | Tubastatin A -0.001 | [1] 0.014 | defactinib -0.043 | [2] 0.053 | encorafenib 0.03 | [3] -0.069 | alisertib -0.021 | [4] 0.017 | gefitinib -0.001

HMCES (UniProt Q96FZ2)
inactive: alvocidib -0.034 | Tubastatin A -0.153 | [1] 0.062 | defactinib -0.008 | [2] 0.032 | encorafenib -0.014 | [3] 0.064 | alisertib 0.03 | [4] -0.005 | gefitinib -0.07

HMG20A (UniProt Q9NP66)
inactive: alvocidib -0.048 | Tubastatin A 0.003 | [1] -0.025 | defactinib -0.023 | [2] -0.055 | encorafenib -0.012 | [3] -0.004 | alisertib 0.01 | [4] 0.066 | gefitinib 0.01

HOXB9 (UniProt P17482)
inactive: alvocidib 0.019 | Tubastatin A -0.217 | [1] 0.086 | defactinib 0.072 | [2] 0.021 | encorafenib 0.075 | [3] 0.012 | alisertib -0.041 | [4] -0.006 | gefitinib 0.086

HIST2H2BF isoform 2 (UniProt Q5QNW6)
inactive: alvocidib -0.001 | Tubastatin A 0.019 | [1] -0.014 | defactinib -0.033 | [2] 0.164 | encorafenib -0.026 | [3] 0.103 | alisertib 0.015 | [4] -0.003 | gefitinib -0.03

HMGCL (UniProt P35914)
inactive: alvocidib 0.013 | Tubastatin A -0.012 | [1] -0.015 | defactinib 0.059 | [2] 0.055 | encorafenib 0.032 | [3] -0.102 | alisertib -0.031 | [4] -0.016 | gefitinib -0.021

HOOK3 (UniProt Q86VS8)
inactive: alvocidib -0.001 | Tubastatin A -0.019 | [1] 0.053 | defactinib 0 | [2] 0.019 | encorafenib 0.054 | [3] -0.03 | alisertib 0.007 | [4] 0.002 | gefitinib 0.053

HMGN5 (UniProt P82970)
inactive: alvocidib 0.04 | Tubastatin A 0.045 | [1] -0.029 | defactinib 0.051 | [2] 0.018 | encorafenib -0.029 | [3] -0.023 | alisertib -0.036 | [4] 0.006 | gefitinib -0.028

HNRNPD isoform 3 (UniProt Q14103)
inactive: alvocidib 0.017 | Tubastatin A 0.008 | [1] 0.004 | defactinib 0.117 | [2] 0.146 | encorafenib 0.036 | [3] 0.016 | alisertib 0.024 | [4] 0.001 | gefitinib 0.113

HMGA1 (UniProt P17096)
inactive: alvocidib -0.108 | Tubastatin A 0.066 | [1] -0.001 | defactinib -0.007 | [2] 0.023 | encorafenib -0.005 | [3] -0.018 | alisertib 0.046 | [4] 0.011 | gefitinib -0.027

HEBP1 (UniProt Q9NRV9)
inactive: alvocidib -0.038 | Tubastatin A 0.027 | [1] 0.141 | defactinib 0.01 | [2] 0.007 | encorafenib -0.011 | [3] -0.067 | alisertib 0.034 | [4] 0.036 | gefitinib 0.085

HNRNPUL1 (UniProt Q9BUJ2)
inactive: alvocidib 0.006 | Tubastatin A 0.01 | [1] -0.011 | defactinib 0.002 | [2] -0.027 | encorafenib 0.003 | [3] -0.003 | alisertib -0.012 | [4] 0.007 | gefitinib -0.015

HSP90AB4P (UniProt Q58FF6)
inactive: alvocidib -0.218 | Tubastatin A 0.167 | [1] -0.073 | defactinib -0.165 | [2] 0.015 | encorafenib 0.129 | [3] 0.026 | alisertib 0.03 | [4] 0.08 | gefitinib -0.166

HEMGN (UniProt Q9BXL5)
inactive: alvocidib 0.038 | Tubastatin A 0.046 | [1] 0.015 | defactinib -0.009 | [2] 0.035 | encorafenib -0.023 | [3] 0.004 | alisertib -0.009 | [4] -0.011 | gefitinib -0.004

HSD17B8 (UniProt Q92506)
inactive: alvocidib -0.02 | Tubastatin A 0.008 | [1] 0.024 | defactinib 0.003 | [2] 0.033 | encorafenib 0.048 | [3] -0.022 | alisertib 0.02 | [4] -0.002 | gefitinib 0.015

HSD17B7 (UniProt P56937)
inactive: alvocidib 0.032 | Tubastatin A -0.018 | [1] 0.064 | defactinib 0.028 | [2] -0.022 | encorafenib 0.158 | [3] 0.068 | alisertib -0.012 | [4] -0.037 | gefitinib 0.033

HM13 isoform 2 (UniProt Q8TCT9)
inactive: alvocidib -0.004 | Tubastatin A 0.037 | [1] 0.016 | defactinib 0.048 | [2] 0.054 | encorafenib 0.018 | [3] 0.011 | alisertib 0.01 | [4] 0.024 | gefitinib 0.026

HIP1R (UniProt O75146)
inactive: alvocidib 0.023 | Tubastatin A -0.016 | [1] 0.014 | defactinib -0.006 | [2] 0.004 | encorafenib 0.012 | [3] 0.008 | alisertib -0.005 | [4] 0.008 | gefitinib 0.007

HIST2H2BC (UniProt Q6DN03)
inactive: alvocidib 0.024 | Tubastatin A 0.004 | [1] 0.019 | defactinib -0.148 | [2] -0.003 | encorafenib 0.092 | [3] 0.143 | alisertib 0.005 | [4] 0.008 | gefitinib -0.12

HSPA14 (UniProt Q0VDF9)
inactive: alvocidib 0.001 | Tubastatin A -0.081 | [1] 0.01 | defactinib 0.012 | [2] -0.011 | encorafenib -0.004 | [3] 0.153 | alisertib 0.028 | [4] 0 | gefitinib 0.02

HINT2 (UniProt Q9BX68)
inactive: alvocidib 0.069 | Tubastatin A 0.036 | [1] 0.064 | defactinib 0.203 | [2] 0.02 | encorafenib 0.061 | [3] 0.014 | alisertib 0.057 | [4] -0.051 | gefitinib -0.115

HSP90B1 (UniProt P14625)
inactive: alvocidib 0.02 | Tubastatin A 0.052 | [1] -0.009 | defactinib -0.016 | [2] 0.011 | encorafenib -0.01 | [3] -0.016 | alisertib 0.007 | [4] 0.008 | gefitinib -0.002

HIRA (UniProt P54198)
inactive: alvocidib 0.053 | Tubastatin A -0.059 | [1] 0.092 | defactinib 0.02 | [2] 0.057 | encorafenib 0.051 | [3] -0.084 | alisertib -0.065 | [4] -0.103 | gefitinib -0.044

Reprinted at random: 2 entries already listed
HSPA14 (UniProt Q0VDF9)
inactive: alvocidib 0.001 | Tubastatin A -0.081 | [1] 0.01 | defactinib 0.012 | [2] -0.011 | encorafenib -0.004 | [3] 0.153 | alisertib 0.028 | [4] 0 | gefitinib 0.02

HIST2H2BC (UniProt Q6DN03)
inactive: alvocidib 0.024 | Tubastatin A 0.004 | [1] 0.019 | defactinib -0.148 | [2] -0.003 | encorafenib 0.092 | [3] 0.143 | alisertib 0.005 | [4] 0.008 | gefitinib -0.12

(listing goes on)

HMGN2 (UniProt P05204)
inactive: alvocidib 0.019 | Tubastatin A 0.012 | [1] -0.008 | defactinib -0.013 | [2] 0.014 | encorafenib -0.067 | [3] 0.023 | alisertib -0.047 | [4] 0.047 | gefitinib -0.011

HPF1 (UniProt Q9NWY4)
inactive: alvocidib 0.031 | Tubastatin A -0.09 | [1] 0.015 | defactinib 0.021 | [2] -0.033 | encorafenib -0.027 | [3] 0.109 | alisertib 0.008 | [4] -0.002 | gefitinib 0.017

HHEX (UniProt Q03014)
inactive: alvocidib -0.035 | Tubastatin A -0.052 | [1] 0.026 | defactinib 0.069 | [2] -0.029 | encorafenib -0.056 | [3] 0.309 | alisertib 0.069 | [4] 0.175 | gefitinib 0.026

HP1BP3 (UniProt Q5SSJ5)
inactive: alvocidib -0.02 | Tubastatin A -0.032 | [1] -0.045 | defactinib -0.025 | [2] -0.017 | encorafenib 0.008 | [3] 0.083 | alisertib -0.021 | [4] -0.007 | gefitinib -0.015
